The results in this text go back to article PMC13070255.

The assay addresses T1, MERTK on THP1-derived macrophages (human (endogenous in THP1)) (UniProt Q12866).
T1 sequence: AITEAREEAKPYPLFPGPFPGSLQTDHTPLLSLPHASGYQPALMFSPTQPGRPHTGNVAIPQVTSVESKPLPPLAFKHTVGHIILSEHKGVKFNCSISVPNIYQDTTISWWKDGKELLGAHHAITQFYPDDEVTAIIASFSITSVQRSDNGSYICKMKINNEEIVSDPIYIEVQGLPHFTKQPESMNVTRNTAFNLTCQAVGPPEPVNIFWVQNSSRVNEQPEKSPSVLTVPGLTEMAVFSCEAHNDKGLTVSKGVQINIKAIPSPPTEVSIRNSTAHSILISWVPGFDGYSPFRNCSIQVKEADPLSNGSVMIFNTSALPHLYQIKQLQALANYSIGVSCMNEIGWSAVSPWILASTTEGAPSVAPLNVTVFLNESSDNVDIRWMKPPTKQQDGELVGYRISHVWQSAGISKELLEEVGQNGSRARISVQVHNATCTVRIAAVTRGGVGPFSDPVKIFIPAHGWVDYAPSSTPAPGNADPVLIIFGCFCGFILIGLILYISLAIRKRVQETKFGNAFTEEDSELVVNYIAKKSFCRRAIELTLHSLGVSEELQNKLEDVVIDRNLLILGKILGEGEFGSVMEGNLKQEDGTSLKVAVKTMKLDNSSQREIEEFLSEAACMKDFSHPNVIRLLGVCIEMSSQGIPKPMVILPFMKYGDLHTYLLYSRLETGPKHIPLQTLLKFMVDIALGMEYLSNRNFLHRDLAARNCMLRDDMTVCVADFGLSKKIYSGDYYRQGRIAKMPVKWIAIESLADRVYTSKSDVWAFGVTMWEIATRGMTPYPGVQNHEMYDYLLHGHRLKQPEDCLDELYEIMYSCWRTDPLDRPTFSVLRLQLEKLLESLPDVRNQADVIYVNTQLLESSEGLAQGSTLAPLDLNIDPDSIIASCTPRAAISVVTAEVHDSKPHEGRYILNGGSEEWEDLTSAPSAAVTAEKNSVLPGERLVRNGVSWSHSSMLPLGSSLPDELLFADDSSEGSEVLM
Kind of assay: binding of opsonised apoptotic cell mimics (beads) to cells, microscopy; beads opsonised with Gas6 and/or sCD93, or with ProS and MFG-E8, centrifuged onto PMA-differentiated THP1 macrophages, 60 min at 37°C; bound beads per macrophage counted; MERTK, αx or β2 depleted by siRNA as controls; only the binder purified.

Results are given in words; binding and its absence hold for the method and conditions named. Some results given as binding are weak or reduced against the parent protein; the word gives no strength.

B1: Protein S (ligand, UniProt P07225 42-676)
chain: ANSLLEETKQGNLERECIEELCNKEEAREVFENDPETDYFYPKYLVCLRSFQTGLFTAARQSTNAYPDLRSCVNAIPDQCSPLPCNEDGYMSCKDGKASFTCTCKPGWQGEKCEFDINECKDPSNINGGCSQICDNTPGSYHCSCKNGFVMLSNKKDCKDVDECSLKPSICGTAVCKNIPGDFECECPEGYRYNLKSKSCEDIDECSENMCAQLCVNYPGGYTCYCDGKKGFKLAQDQKSCEVVSVCLPLNLDTKYELLYLAEQFAGVVLYLKFRLPEISRFSAEFDFRTYDSEGVILYAESIDHSAWLLIALRGGKIEVQLKNEHTSKITTGGDVINNGLWNMVSVEELEHSISIKIAKEAVMDINKPGPLFKPENGLLETKVYFAGFPRKVESELIKPINPRLDGCIRSWNLMKQGASGIKEIIQEKQNKHCLVTVEKGSYYPGSGIAQFHIDYNNVSSAEGWHVNVTLNIRPSTGTGVMLALVSGNNTVPFAVSLVDSTSEKSQDILLSVENTVIYRIQALSLCSDQQSHLEFRVNRNNLELSTPLKIETISHEDLQRQLAVLDKAMKAKVATYLGGLPDVPFSATPVNAFYNGCMEVNINGVQLDLDEAISKHNDIRAHSCPSVWKKTKNS
Regarding B1, the binding entry is “binds”.

B2: Gas6 (recombinant) (ligand, UniProt Q14393 31-678)
chain: ALLPAREATQFLRPRQRRAFQVFEEAKQGHLERECVEELCSREEAREVFENDPETDYFYPRYLDCINKYGSPYTKNSGFATCVQNLPDQCTPNPCDRKGTQACQDLMGNFFCLCKAGWGGRLCDKDVNECSQENGGCLQICHNKPGSFHCSCHSGFELSSDGRTCQDIDECADSEACGEARCKNLPGSYSCLCDEGFAYSSQEKACRDVDECLQGRCEQVCVNSPGSYTCHCDGRGGLKLSQDMDTCEDILPCVPFSVAKSVKSLYLGRMFSGTPVIRLRFKRLQPTRLVAEFDFRTFDPEGILLFAGGHQDSTWIVLALRAGRLELQLRYNGVGRVTSSGPVINHGMWQTISVEELARNLVIKVNRDAVMKIAVAGDLFQPERGLYHLNLTVGGIPFHEKDLVQPINPRLDGCMRSWNWLNGEDTTIQETVKVNTRMQCFSVTERGSFYPGSGFAFYSLDYMRTPLDVGTESTWEVEVVAHIRPAADTGVLFALWAPDLRAVPLSVALVDYHSTKKLKKQLVVLAVEHTALALMEIKVCDGQEHVVTVSLRDGEATLEVDGTRGQSEVSAAQLQERLAVLERHLRSPVLTFAGGLPDVPVTSAPVTAFYRGCMTLEVNRRLLDLDEAAYKHSDITAHSCPPVEPAAA
As for B2, the binding result is recorded as “binds”.
